These are yes or no findings as the source states them, for the method shown. Binding seen in cells or lysates may run through a third protein. These calls come from enrichment with a bait or labelling near it, and not all partners need be listed. Sequences can lack the tags named with a protein.
Target: T1, Flag-HMMR (UniProt O75330)
T1 sequence: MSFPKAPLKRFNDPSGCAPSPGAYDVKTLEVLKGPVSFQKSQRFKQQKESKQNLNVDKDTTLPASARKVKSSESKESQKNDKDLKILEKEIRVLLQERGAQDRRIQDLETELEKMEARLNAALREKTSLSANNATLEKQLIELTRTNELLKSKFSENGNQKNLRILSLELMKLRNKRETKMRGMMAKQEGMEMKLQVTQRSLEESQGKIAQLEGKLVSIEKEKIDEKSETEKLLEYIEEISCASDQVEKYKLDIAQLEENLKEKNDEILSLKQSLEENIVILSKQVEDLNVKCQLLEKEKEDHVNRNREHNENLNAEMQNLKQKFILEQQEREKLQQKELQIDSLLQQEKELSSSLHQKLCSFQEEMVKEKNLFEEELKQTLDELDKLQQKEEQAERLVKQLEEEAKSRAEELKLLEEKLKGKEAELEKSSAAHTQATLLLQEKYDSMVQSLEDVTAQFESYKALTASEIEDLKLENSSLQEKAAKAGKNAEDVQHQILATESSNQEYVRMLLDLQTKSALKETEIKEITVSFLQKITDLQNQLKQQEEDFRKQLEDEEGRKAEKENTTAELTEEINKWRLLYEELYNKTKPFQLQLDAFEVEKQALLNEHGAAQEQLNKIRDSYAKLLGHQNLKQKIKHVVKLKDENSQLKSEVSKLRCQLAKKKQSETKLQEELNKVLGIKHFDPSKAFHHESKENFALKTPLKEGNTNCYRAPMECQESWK
Test: affinity purification with mass spectrometry; lysates of H1299 Flag-HMMR-overexpressing stable cells and control cells, anti-Flag magnetic beads, label-free proteomics

Chains of the proteins cited; added tags and fusions are not shown.
UniProt O95819: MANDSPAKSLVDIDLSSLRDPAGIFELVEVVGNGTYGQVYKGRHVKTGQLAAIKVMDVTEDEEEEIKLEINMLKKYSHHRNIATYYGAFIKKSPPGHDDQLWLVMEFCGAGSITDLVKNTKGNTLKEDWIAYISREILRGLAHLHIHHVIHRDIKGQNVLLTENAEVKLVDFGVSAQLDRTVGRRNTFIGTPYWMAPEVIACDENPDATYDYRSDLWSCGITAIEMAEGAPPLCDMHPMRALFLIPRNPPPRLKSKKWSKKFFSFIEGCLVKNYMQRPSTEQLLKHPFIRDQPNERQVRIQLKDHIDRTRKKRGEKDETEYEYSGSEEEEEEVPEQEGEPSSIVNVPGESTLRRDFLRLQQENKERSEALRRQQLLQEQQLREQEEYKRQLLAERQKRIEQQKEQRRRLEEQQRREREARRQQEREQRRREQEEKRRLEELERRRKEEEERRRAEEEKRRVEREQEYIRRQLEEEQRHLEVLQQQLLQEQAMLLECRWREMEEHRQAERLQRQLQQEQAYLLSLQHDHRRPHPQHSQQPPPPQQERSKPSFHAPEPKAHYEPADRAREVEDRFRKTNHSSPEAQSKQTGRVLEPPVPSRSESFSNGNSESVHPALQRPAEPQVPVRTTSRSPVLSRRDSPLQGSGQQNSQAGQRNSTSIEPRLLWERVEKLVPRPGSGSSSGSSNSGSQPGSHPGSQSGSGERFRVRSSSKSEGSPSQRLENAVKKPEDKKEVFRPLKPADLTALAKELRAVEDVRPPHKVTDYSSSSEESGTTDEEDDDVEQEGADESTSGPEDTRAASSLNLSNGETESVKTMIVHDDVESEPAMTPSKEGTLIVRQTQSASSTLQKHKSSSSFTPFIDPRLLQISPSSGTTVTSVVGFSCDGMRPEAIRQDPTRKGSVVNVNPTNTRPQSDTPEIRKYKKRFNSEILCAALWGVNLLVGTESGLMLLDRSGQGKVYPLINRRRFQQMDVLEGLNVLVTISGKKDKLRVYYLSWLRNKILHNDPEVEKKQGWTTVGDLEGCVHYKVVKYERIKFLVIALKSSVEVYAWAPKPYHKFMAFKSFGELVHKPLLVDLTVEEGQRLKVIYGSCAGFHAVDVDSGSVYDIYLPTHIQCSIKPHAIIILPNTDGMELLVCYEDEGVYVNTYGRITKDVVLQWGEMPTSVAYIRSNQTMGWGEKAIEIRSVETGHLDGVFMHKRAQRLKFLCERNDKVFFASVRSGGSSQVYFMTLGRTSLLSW

Substance: Mitogen-activated protein kinase kinase kinase kinase 4 (MAP4K4) (from UniProt O95819 1-1239)
- binding: binds

From PMC11844294
